Source: PubChem BioAssay AID540275 (National Center for Advancing Translational Sciences (NCATS), 2011)
In all, about 320,000 compounds went through this assay and about 620 (0.19%) were called active. Inconclusive means that the source gave no clear call. Such entries were picked first, then a sample of the others. Cut-off read from the data, not from the text of the source: active = activation above about 80%; inconclusive = between about 30% and that limit; inactive = weaker than that.

Chains of the proteins cited; added tags and fusions are not shown.
UniProt Q8NER1, whole entry, looked up: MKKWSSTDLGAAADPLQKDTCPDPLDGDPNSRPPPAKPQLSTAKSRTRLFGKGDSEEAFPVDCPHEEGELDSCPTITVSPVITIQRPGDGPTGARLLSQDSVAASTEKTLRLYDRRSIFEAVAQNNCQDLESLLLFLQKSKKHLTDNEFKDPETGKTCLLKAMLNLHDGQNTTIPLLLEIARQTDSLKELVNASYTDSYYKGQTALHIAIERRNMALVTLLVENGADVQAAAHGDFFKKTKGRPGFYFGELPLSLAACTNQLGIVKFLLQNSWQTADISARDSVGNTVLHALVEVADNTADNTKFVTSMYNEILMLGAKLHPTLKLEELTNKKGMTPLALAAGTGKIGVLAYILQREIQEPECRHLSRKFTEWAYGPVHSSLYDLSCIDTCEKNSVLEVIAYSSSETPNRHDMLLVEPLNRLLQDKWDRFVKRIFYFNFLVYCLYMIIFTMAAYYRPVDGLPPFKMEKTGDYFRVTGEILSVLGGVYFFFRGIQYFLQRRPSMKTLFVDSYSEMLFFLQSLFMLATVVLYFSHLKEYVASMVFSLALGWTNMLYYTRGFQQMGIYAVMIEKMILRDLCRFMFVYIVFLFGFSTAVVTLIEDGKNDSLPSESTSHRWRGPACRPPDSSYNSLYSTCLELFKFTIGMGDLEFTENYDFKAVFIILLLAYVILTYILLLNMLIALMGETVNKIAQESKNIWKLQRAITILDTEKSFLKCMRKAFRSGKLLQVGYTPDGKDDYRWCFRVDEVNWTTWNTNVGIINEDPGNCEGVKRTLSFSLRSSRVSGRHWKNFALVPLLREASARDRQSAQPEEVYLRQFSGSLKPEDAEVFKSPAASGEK

Each compound was assayed against Transient receptor potential cation channel subfamily V member 1 (Homo sapiens) (UniProt Q8NER1) (assay: HTS Assay for Compounds that Act as Agonists of the Vanilloid Receptor 1). Conditions: TRPV1-expressing cells, Fluo-8 calcium influx, agonist mode; at 8.33 µM, stronger effect = higher value.
Procedure, shortened: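 TRPV1-expressing cells were cultured overnight at 35.5C and loaded with Fluo-8 calcium dye for 40 to 90 min at room temperature. After a 10 s baseline, compound was added and calcium influx was read kinetically for 3 min (ex 480/em 520 nm).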
Note: 0% is about no effect.

Compound | activation
N#CC1C(C#N)N2CCCN2C1c1ccc(Cl)cc1 (stereo not drawn) | inactive: -1.76%
CC(C)c1nc2cc(C(=O)NC(c3cccnc3)C(F)(F)F)ccc2o1 (stereo not drawn) | inconclusive: 78.5%
C=CCN(CC=C)C(=S)NC(=O)/C=C/c1ccc(OC)cc1 | inactive: 19.9%
CC(=O)Nc1ccc(NC(=O)C(C)N(C)CC(=O)Nc2ccccc2Br)cc1 (stereo not drawn) | inconclusive: 33.3%
Cc1cccc(OCCN2C(=O)c3ccccc3C2=O)c1 | inconclusive: 39.7%
Fc1ccccc1CSc1nnc(-c2cccs2)o1 | inconclusive: 33.8%
O=C(Nc1cc(Cl)cc(Cl)c1)N1CCCC1 | inconclusive: 39.7%
CCOCCCNC(=O)c1cc(Sc2ccc(F)cc2)nc2ccccc12 | inconclusive: 33.7%
CCCCN1C(=O)/C(=C/C=C2\Oc3ccccc3N2CC)SC1=S | inconclusive: 30.7%
COc1ccc(-c2cc(-c3nnc(COC(=O)CC4CC5CCC4C5)o3)c3ccccc3n2)cc1OC (stereo not drawn) | inactive: 1.72%
N/C(=N\OC(=O)c1ccc(Br)cc1)c1ccncc1 | inconclusive: 38.6%
CC(C)NC(=O)NNC(=O)Cn1nnc(-c2cccc(Cl)c2Cl)n1 | inactive: -3.25%
CCOC(=O)Cc1cc(=O)[nH]c(/N=C(\N)Nc2ccc(C)cc2C)n1 | inactive: 9.68%
CC1(C)Cc2c(cnn2-c2ccc(F)cc2)C(NC(=O)C2CCC2)C1 (stereo not drawn) | inconclusive: 49.7%
CN(c1cccc(Cl)c1)S(=O)(=O)c1cccc(C(=O)NC2=NCCS2)c1 | inconclusive: 41.1%
Cc1ccc(/C=N/n2c(COc3ccccc3)n[nH]c2=S)cc1 | inactive: 21.2%
Oc1c(C(Nc2cccc(C(F)(F)F)c2)c2cccnc2)ccc2cccnc12 (stereo not drawn) | inactive: 6.72%
O=C(NCC1CCCO1)c1cccc(S(=O)(=O)N(Cc2ccccc2)c2ccccc2)c1 (stereo not drawn) | inconclusive: 34.4%
CC1CN(C(=O)CSc2nnc(CNC(=O)c3ccc(S(=O)(=O)N(C)C)cc3)o2)CC(C)O1 (stereo not drawn) | inactive: -3.01%
COc1ccc(-c2[nH]c(-c3ccccc3)nc2SCC(=O)NC2CCCC2)cc1 | inconclusive: 52.3%
CC(C)CNC(=O)COC(=O)c1cc(S(=O)(=O)N2CCCCC2)ccc1N1CCOCC1 | inactive: -1.49%
CC1Cc2ccccc2N1S(=O)(=O)c1cccc(C(=O)NCCCO)c1 (stereo not drawn) | inconclusive: 33.3%
Fc1ccc(Cn2nnc(-c3ccc(Cl)cc3)n2)cc1 | inconclusive: 33.1%
Fc1ccc(CNC(=S)Nc2ccc(Cl)cc2Cl)cc1 | active: 87.6%

As a working copy, part of the list above:
Compound | activation
O=C(NCC1CCCO1)c1cccc(S(=O)(=O)N(Cc2ccccc2)c2ccccc2)c1 (stereo not drawn) | inconclusive: 34.4%
CC1CN(C(=O)CSc2nnc(CNC(=O)c3ccc(S(=O)(=O)N(C)C)cc3)o2)CC(C)O1 (stereo not drawn) | inactive: -3.01%
COc1ccc(-c2[nH]c(-c3ccccc3)nc2SCC(=O)NC2CCCC2)cc1 | inconclusive: 52.3%
CC(C)CNC(=O)COC(=O)c1cc(S(=O)(=O)N2CCCCC2)ccc1N1CCOCC1 | inactive: -1.49%
CC1Cc2ccccc2N1S(=O)(=O)c1cccc(C(=O)NCCCO)c1 (stereo not drawn) | inconclusive: 33.3%

The results go on.

Compound | activation
Cc1c(C(=O)OCC(=O)N2C(C)CCCC2C)oc2ccccc12 (stereo not drawn) | inactive: 19.3%
CS(=O)(=O)N1CCN=C1SCc1ccc(Br)cc1 | inconclusive: 30.9%
Cc1ccc(S(=O)(=O)N/N=C/c2ccc(OCC(=O)N3CCOCC3)cc2)cc1 | inactive: 0.314%
Cc1ccc(C(=O)NCCNc2ccc(Cl)cc2[N+](=O)[O-])o1 | inconclusive: 40.2%
O=C(c1cccc(F)c1)N1CCN(Cc2cccc(Br)c2)CC1 | inconclusive: 55.4%
Cn1nccc1C(=O)NC1CCCc2c1cnn2-c1cc(F)cc(F)c1 (stereo not drawn) | inconclusive: 63.2%
Cc1ccc2ncnc(Nc3cccc([N+](=O)[O-])c3)c2c1 | inconclusive: 40.6%
O=C(O)/C=C/C(=O)Nc1ccc(C(=O)c2ccccc2)cc1 | inconclusive: 44.7%
CCCCNC(=S)N1CCN(c2ccc(C(C)=O)cc2)CC1 | inconclusive: 45%
Cc1cc(C)cc(NC(=O)Nc2cccc(S(N)(=O)=O)c2)c1 | inconclusive: 79.6%
O=C(CSc1cccc[n+]1[O-])CSc1cccc[n+]1[O-] | inactive: 4.13%
CCCC(=O)N1CCN(c2nc3ccccc3s2)CC1 | inconclusive: 47.7%
O=C(Nc1ccc(NC(=O)c2ccc3c(c2)OCCO3)cc1)c1ccccc1 | inactive: 1.15%
Cc1ccc(S(=O)(=O)c2cc3c(=O)n4ccccc4nc3n(C)c2=N)cc1 | inconclusive: 31.5%
Cc1ccc(N2C(=O)C3N=NN(CC(=O)N4N=C(c5cccc6ccccc56)CC4c4ccccc4)C3C2=O)cc1 (stereo not drawn) | inconclusive: 31.7%
COC(=O)C(CC(C)C)NC(=O)/C=C/c1ccccc1Cl (stereo not drawn) | inconclusive: 33.7%
Cc1ccc(C(=O)Nc2nc(-c3ccccn3)cs2)s1 | inconclusive: 34.3%
COc1cccc(C(=O)Nc2c3c(nc4c2CCC4)CCCC3)c1 | inconclusive: 36.5%
COc1cc(OC)c2c(c1O)OC(c1ccccc1)CC2=O (stereo not drawn) | inactive: 0.835%
COc1ccc(CNC(=O)COC(=O)c2ccc3c(c2)OCCO3)cc1 | inconclusive: 40.6%
CCOc1cc(N2CCOCC2)c(OCC)cc1NC(=O)c1cc(S(=O)(=O)N2CCOCC2)ccc1Cl | inconclusive: 34.4%
COc1ccc(/C=N/NC(=O)c2nnn(-c3nonc3N)c2-c2cccs2)c(OC)c1 | inactive: 0.631%
CN1/C(=C\C=C2/SC(=S)NC2=O)C(C)(C)c2ccccc21 | inconclusive: 42.7%
CC(=O)Nc1nonc1NC(=O)CSc1nc2ccccc2o1 | inactive: -2.12%

In another format: entries from further up.
Compound,activation
Cn1nccc1C(=O)NC1CCCc2c1cnn2-c1cc(F)cc(F)c1 (stereo not drawn),inconclusive: 63.2%
COc1cc(OC)c2c(c1O)OC(c1ccccc1)CC2=O (stereo not drawn),inactive: 0.835%

Remaining list, next part:

Compound | activation
CC(C)c1ccc(NC(=O)N2CCN(S(=O)(=O)c3ccccc3)CC2)cc1 | inconclusive: 74.9%
COC(=O)c1c(C)c[nH]c1C | inactive: 1.14%
COc1ccc(OC2CCN(S(=O)(=O)c3ccc(OC)cc3)CC2)cc1 | inactive: -4.79%
COc1ccc(CCN(C)CC(O)COC(c2ccc(F)cc2)c2ccc(F)cc2)cc1OC (stereo not drawn) | inactive: 3.08%
O=C(COc1ccccc1-c1ccccc1)N/N=C/c1cccnc1 | inconclusive: 50%
C=CCC(NCc1ccccc1)c1ccccc1 (stereo not drawn) | inconclusive: 49.2%
CCOc1ccccc1N1CC(C(=O)N2CCOCC2)CC1=O (stereo not drawn) | inactive: 9.28%
CCOC(=O)[C@H]1[C@H]2COc3ccc(C)cc3[C@@H]2N2C(=O)CN(Cc3ccc(F)cc3)C(=O)[C@@]12C | inconclusive: 31%
O=C(CCCc1ccccc1)NCCC1=CCCCC1 | inconclusive: 49.1%
Cc1ccnc(NC(=O)c2ccccc2NC(=O)c2ccccc2)c1 | inconclusive: 44.9%
CN(c1ccccc1)S(=O)(=O)c1cccc(NC(=O)c2ccc3ncsc3c2)c1 | inconclusive: 69%
CCCCCn1c(=O)[nH]c2cc(C(=O)NCc3ccccn3)ccc2c1=O | inactive: 7.3%
CCOc1cc(S(=O)(=O)NCCc2cccc(C)c2)c(OCC)cc1-n1cnnn1 | inactive: -3.12%
Cc1ccc(C)c(N2C(=O)CC(Cc3ccccc3)C2=O)c1 (stereo not drawn) | inactive: 0.0282%
Cc1cccc(N2CCN(C(=O)CCCn3c(=O)[nH]c4ccsc4c3=O)CC2C)c1 (stereo not drawn) | inactive: 1.69%
Cc1cccc(OCC(=O)Nc2cc(C)c(C)cc2O)c1 | inconclusive: 48.4%
Cc1cccc(N2CCN(C(=O)C3CCCCC3)CC2)c1C | inconclusive: 68.8%
O=C(c1ccc(COc2ccccc2Br)cc1)N1CCCCCC1 | inconclusive: 35%
Cc1cc(C)c(C#N)c(SCc2ccccc2)n1 | inactive: 15.3%
COCc1nc2ccccc2n1CCCOc1ccccc1 | inconclusive: 57.9%
COc1ccccc1-n1cc(-c2ccc(C)cc2)[nH]c1=S | inactive: 1.4%
O=C(CCS(=O)(=O)c1cccc2nonc12)Nc1cccc2c1CCCC2 | inconclusive: 40.6%
COc1ccc(NC(=O)C2CCCN(c3nn4c(=O)cc(C)nc4s3)C2)c(OC)c1 (stereo not drawn) | inactive: 1.34%
O=C(Nc1ccc(OC(F)(F)F)cc1)c1cnccn1 | inconclusive: 33.5%

Compound | activation
COCCNc1ncnc2c1cnn2-c1ccc(Cl)cc1 | inactive: 13.2%
CCOC(=O)c1sc(NC(=O)c2ccc(C)o2)nc1C | inconclusive: 30.5%
CCc1nc(NC(C)C)c2oc3ccccc3c2n1 | inconclusive: 54.2%
CCCCCCCCCC(=O)Nc1cccnc1 | inconclusive: 68.6%
Cc1ccc(NC(=O)c2ccccc2NC(=O)c2cccnc2)cc1 | inconclusive: 35.3%
Cc1cc(OCC(=O)OCC(=O)NCc2ccc3c(c2)OCO3)ccc1Cl | inactive: 13%
CC(NC(=O)CCSc1nc(-c2ccco2)cc(C(F)(F)F)n1)c1ccccc1 (stereo not drawn) | inconclusive: 39.8%
S=C(NN=C(C1CC1)C1CC1)Nc1ccccc1 | inactive: -4.11%
CC1CCN(CCc2nc3cc(NC(=O)COc4ccc(Cl)cc4)ccc3n2C)CC1 | inactive: 7.14%
CCc1ccc(C(C(=O)NC2CCCCC2)N(C(=O)c2csnn2)C2CC2)cc1 (stereo not drawn) | inconclusive: 39.7%
CC1(C)NC(=O)N(CCCCOc2ccc(Br)cc2Cl)C1=O | inconclusive: 34.4%
Cc1nc(C(F)(F)F)ccc1C(=O)Nc1ccc(C(F)(F)F)cn1 | active: 82.2%
Cc1[nH]n(-c2ccccc2)c(=O)c1C(=O)c1ccc(Cl)cc1 | inactive: 0.593%
O=C(c1cc(Br)c(Br)s1)N1CCN(C/C=C/c2ccccc2)CC1 | inconclusive: 33.8%
CCn1c(=O)oc2cc(NC(=O)CCl)ccc21 | inactive: 3.29%
CCN(CC)CCN1C(=O)/C(=C\c2ccc(Cl)c([N+](=O)[O-])c2)SC1=Nc1ccc(OC)cc1 | inactive: -1.68%
S=C(NCCc1cccc(Cl)c1)NCc1ccccc1 | inconclusive: 74.1%
CCOC(=O)c1ccc(Nc2cc(C)nc(C)c2C(=O)OCC)cc1 | inconclusive: 38.3%
COc1ccc2c(CCNC(N)=S)c[nH]c2c1 | inactive: 6.93%
O=C(CSc1n[nH]c(=O)n1C1CC1)Nc1cc(Cl)ccc1Oc1ccccc1 | inconclusive: 57.5%
O=C(Cc1n[nH]c(=O)c2ccccc12)OCC(=O)N(Cc1ccccc1)Cc1ccccc1 | inconclusive: 61%
